Data as given in PubChem BioAssay AID504793 (Drosophila RNAi Screening Center, 2011)
Aim: 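Knock-downs allowing continued mitosis even though DNA is damaged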 (primary screen). Cell system: Drosophila S2R+ cells. Reagent: long dsRNA against Drosophila genes, about 0.25 µg dsRNA per well. Timing: 4 days of dsRNA, then 4 hours of drug before read-out. Treatment: doxorubicin 0.5 µM for 4 hours to cause double-strand breaks, in cells also given a low, harmless dose of dsRNA against nbs to sensitise the assay. Detection: 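Mitotic index as the number of phospho-histone H3-positive cells in each well following doxorubicin, given as raw counts without normalisation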. Direction: mitotic cells: higher = more cells in mitosis, weaker G2 arrest. Hit rule: 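Genes are called active only when high mitotic counts were reproduced with independent dsRNAs and mitosis was checked for delay without damage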. Calls: active = confirmed in follow-up tests; inactive = not confirmed.
The screen tested about 23,000 reagents; shown is a random part of those that have a named target and a result. Of all reagents, 62 (0.27%) got an active call. 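Calls come from follow-up tests whose scores are not deposited, so confirmed genes may have low counts here; counts are not normalised per plate.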 The raw values are shown without normalisation.

CG31021 [DRSC22319]: mitotic cells, replicate 1 = 10; Call = inactive
CG8671 [DRSC03102]: mitotic cells, replicate 1 = 7; Call = inactive
CG8671 [DRSC03103]: mitotic cells, replicate 1 = 11; Call = inactive
CG8671 [DRSC27179]: mitotic cells, replicate 1 = 9; Call = inactive
Usp12-46 (Ubiquitin-specific protease 12/46) [DRSC16175]: mitotic cells, replicate 1 = 5; Call = inactive
mthl15 (methuselah-like 15) [DRSC01120]: mitotic cells, replicate 1 = 6; Call = inactive
CG15136 [DRSC02436]: mitotic cells, replicate 1 = 4; Call = inactive
CG42521 [DRSC10154]: mitotic cells, replicate 1 = 4; Call = inactive
CG32241 [DRSC08100]: mitotic cells, replicate 1 = 3; mitotic cells, replicate 2 = 2; Call = inactive
CG32241 [DRSC21518]: mitotic cells, replicate 1 = 14; Call = inactive
CG32241 [DRSC25178]: mitotic cells, replicate 1 = 8; Call = inactive
Dip-C (Dipeptidase C) [DRSC15855]: mitotic cells, replicate 1 = 10; Call = inactive
Jasper (JIL-1 anchoring and stabilizing protein) [DRSC16352]: mitotic cells, replicate 1 = 5; Call = inactive
S6kII (Ribosomal protein S6 kinase II) [DRSC20645]: mitotic cells, replicate 1 = 4; Call = inactive
Fcp1 (TFIIF-interacting CTD phosphatase) [DRSC04121]: mitotic cells, replicate 1 = 1; Call = inactive
Fcp1 (TFIIF-interacting CTD phosphatase) [DRSC26715]: mitotic cells, replicate 1 = 11; Call = inactive
Nipped-B [DRSC07815]: mitotic cells, replicate 1 = 9; Call = inactive
Nipped-B [DRSC29151]: mitotic cells, replicate 1 = 7; Call = inactive
mod(mdg4) (modifier of mdg4) [DRSC13478]: mitotic cells, replicate 1 = 23; Call = inactive
mod(mdg4) (modifier of mdg4) [DRSC15042]: mitotic cells, replicate 1 = 5; Call = inactive
mod(mdg4) (modifier of mdg4) [DRSC17000]: mitotic cells, replicate 1 = 19; Call = inactive
CG15199 [DRSC19646]: mitotic cells, replicate 1 = 7; Call = inactive
CG6414 [DRSC18401]: mitotic cells, replicate 1 = 13; Call = inactive

Records listed so far whose target name starts with N or n (2):
Nipped-B [DRSC07815]: mitotic cells, replicate 1 = 9; Call = inactive
Nipped-B [DRSC29151]: mitotic cells, replicate 1 = 7; Call = inactive
